These are yes or no findings as the source states them, for the method shown. For part of these data: In cells and extracts the contact can be indirect. Some entries that bind do so weakly or less than the wild type. Sequences can lack the tags named with a protein.
Tests used:
[1] = target: DRN, full length, yeast two-hybrid fusion (Arabidopsis) (UniProt Q9SAD4); experiment: two-hybrid; pGBKT7 (BD) and pGADT7 (AD) fusions in yeast strain Y2H Gold; tested on SD/−Leu/−Trp/−His/−Ade in dilutions of 10^−1, 10^−2 and 10^−3
[2] = target: DRN fused to a split YFP half (BiFC in tobacco leaves) (Arabidopsis) (UniProt Q9SAD4); experiment: split reporter; BiFC with split YFP in N. benthamiana leaves, Agrobacterium infiltration, 48 h, confocal microscopy
DRN-Flag (Arabidopsis) = DRN-Flag (Arabidopsis) (UniProt Q9SAD4); experiment: co-IP; Arabidopsis protoplasts; PEN-140 buffer; Flag-Trap beads at 4°C for 4 h, IgG as negative control; blots with anti-HA and anti-Flag

Chains of the proteins cited; added tags and fusions are not shown.
UniProt Q9SAD4: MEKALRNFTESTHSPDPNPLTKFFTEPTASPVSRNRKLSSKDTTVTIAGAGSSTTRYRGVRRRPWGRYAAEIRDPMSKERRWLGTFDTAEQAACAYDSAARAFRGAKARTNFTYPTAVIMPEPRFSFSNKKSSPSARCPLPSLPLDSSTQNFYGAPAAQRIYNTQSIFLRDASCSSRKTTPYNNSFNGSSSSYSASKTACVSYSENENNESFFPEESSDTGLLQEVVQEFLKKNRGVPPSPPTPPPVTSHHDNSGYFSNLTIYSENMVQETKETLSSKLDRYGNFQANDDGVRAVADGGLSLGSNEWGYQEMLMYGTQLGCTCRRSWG

B1: N-terminus of BRM (amino acids 1–976), yeast two-hybrid fusion (domain or fragment, UniProt Q6EVK6 1-976)
chain: MQSGGSGGGPARNPAMGPAGRTASTSSAASPSSSSSSVQQQQQQQQQQQQQQQLASRQQQQQHRNSDTNENMFAYQPGGVQGMMGGGNFASSPGSMQMPQQSRNFFESPQQQQQQQQQGSSTQEGQQNFNPMQQAYIQFAMQAQHQKAQQQARMGMVGSSSVGKDQDARMGMLNMQDLNPSSQPQASSSKPSGDQFARGERQTESSSQQRNETKSHPQQQVGTGQLMPGNMIRPMQAPQAQQLVNNMGNNQLAFAQQWQAMQAWARERNIDLSHPANASQMAHILQARMAAQQKAGEGNVASQSPSIPISSQPASSSVVPGENSPHANSASDISGQSGSAKARHALSTGSFASTSSPRMVNPAMNPFSGQGRENPMYPRHLVQPTNGMPSGNPLQTSANETPVLDQNASTKKSLGPAEHLQMQQPRQLNTPTPNLVAPSDTGPLSNSSLQSGQGTQQAQQRSGFTKQQLHVLKAQILAFRRLKKGEGSLPPELLQAISPPPLELQTQRQISPAIGKVQDRSSDKTGEDQARSLECGKESQAAASSNGPIFSKEEDNVGDTEVALTTGHSQLFQNLGKEATSTDVATKEEQQTDVFPVKSDQGADSSTQKNPRSDSTADKGKAVASDGSQSKVPPQANSPQPPKDTASARKYYGPLFDFPFFTRKLDSYGSATANANNNLTLAYDIKDLICEEGAEFLSKKRTDSLKKINGLLAKNLERKRIRPDLVLRLQIEEKKLRLSDLQSRVREEVDRQQQEIMSMPDRPYRKFVRLCERQRLEMNRQVLANQKAVREKQLKTIFQWRKKLLEAHWAIRDARTARNRGVAKYHEKMLREFSKRKDDGRNKRMEALKNNDVERYREMLLEQQTNMPGDAAERYAVLSSFLTQTEDYLHKLGGKITATKNQQEVEEAANAAAVAARLQGLSEEEVRAAATCAREEVVIRNRFTEMNAPKENSSVNKYYTLAHAVNEVVVRQPSML
[1]
  binding: binds

B2: BRM1-976 fused to the C-terminal YFP half (BiFC in tobacco leaves) (domain or fragment, UniProt Q6EVK6 1-976)
chain: B1 chain
[2]
  binding: binds

B3: BRM-3×HA (domain or fragment, UniProt Q6EVK6 1-976)
chain: B1 chain
DRN-Flag (Arabidopsis)
  binding: binds
